{"sequences": {"note": "Sequences of proteins named here, by UniProt entry; tags and fusion partners are left off. A change or cut given only in a name is not applied to a line headed by its entry.", "UniProt P29351": "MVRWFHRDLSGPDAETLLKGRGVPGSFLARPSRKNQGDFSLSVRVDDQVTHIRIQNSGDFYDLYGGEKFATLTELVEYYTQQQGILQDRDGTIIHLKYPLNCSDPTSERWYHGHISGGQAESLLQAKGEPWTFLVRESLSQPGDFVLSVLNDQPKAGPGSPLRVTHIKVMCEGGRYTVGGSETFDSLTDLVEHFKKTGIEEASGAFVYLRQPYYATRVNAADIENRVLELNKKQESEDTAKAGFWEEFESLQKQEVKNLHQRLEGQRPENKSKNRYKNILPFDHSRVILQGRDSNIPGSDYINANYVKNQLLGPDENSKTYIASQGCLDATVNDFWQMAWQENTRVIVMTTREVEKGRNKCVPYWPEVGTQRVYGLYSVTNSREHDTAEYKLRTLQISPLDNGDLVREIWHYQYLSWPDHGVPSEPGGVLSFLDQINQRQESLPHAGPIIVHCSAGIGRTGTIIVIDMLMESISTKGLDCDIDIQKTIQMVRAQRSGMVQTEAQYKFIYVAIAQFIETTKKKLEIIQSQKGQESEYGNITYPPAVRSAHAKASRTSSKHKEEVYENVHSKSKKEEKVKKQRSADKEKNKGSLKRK", "UniProt P23258": "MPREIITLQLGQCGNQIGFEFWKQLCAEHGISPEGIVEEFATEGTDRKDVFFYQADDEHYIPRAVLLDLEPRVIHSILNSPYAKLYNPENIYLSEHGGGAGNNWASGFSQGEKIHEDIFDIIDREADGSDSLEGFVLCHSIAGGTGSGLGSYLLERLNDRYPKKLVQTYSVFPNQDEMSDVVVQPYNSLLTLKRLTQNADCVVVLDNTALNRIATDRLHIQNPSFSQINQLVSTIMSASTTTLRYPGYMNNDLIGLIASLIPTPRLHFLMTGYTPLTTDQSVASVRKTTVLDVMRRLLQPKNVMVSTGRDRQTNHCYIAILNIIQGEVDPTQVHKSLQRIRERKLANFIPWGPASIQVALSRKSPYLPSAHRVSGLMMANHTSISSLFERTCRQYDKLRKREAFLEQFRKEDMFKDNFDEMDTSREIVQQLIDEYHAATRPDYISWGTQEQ", "UniProt P83887": "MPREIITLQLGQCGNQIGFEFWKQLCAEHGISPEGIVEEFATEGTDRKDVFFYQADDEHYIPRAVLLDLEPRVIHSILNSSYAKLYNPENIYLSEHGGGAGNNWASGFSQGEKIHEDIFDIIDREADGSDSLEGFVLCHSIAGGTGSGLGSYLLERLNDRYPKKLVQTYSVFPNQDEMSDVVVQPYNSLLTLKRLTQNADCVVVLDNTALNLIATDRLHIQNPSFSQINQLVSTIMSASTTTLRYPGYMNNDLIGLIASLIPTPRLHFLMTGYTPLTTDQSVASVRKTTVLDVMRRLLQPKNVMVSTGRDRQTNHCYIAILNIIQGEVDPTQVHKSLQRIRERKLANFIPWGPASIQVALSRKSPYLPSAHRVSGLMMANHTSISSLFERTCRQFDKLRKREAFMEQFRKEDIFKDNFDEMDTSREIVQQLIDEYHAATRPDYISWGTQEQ", "UniProt P29350": "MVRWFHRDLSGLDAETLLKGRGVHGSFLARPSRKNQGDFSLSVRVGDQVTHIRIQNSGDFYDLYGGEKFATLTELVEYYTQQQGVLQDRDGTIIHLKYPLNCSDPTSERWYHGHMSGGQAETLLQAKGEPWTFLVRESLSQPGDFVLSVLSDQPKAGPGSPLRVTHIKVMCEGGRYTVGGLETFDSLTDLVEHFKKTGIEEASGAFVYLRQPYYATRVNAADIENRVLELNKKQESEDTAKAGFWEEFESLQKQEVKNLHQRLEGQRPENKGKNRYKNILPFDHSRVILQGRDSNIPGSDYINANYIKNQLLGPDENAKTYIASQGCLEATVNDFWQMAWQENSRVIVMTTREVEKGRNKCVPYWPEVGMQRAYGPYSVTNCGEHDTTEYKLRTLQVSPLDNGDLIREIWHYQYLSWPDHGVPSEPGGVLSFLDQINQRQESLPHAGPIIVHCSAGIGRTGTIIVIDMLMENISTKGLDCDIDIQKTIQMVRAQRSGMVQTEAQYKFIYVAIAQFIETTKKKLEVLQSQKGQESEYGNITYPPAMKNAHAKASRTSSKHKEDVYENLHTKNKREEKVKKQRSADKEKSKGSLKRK"}, "source": "paper PMC6523986", "key": {"[1]": {"target": "C-terminally EGFP-tagged mouse SHP-1 (mSHP-1_EGFP) (mouse) (UniProt P29351)", "experiment": "co-IP; extracts of HEK cells expressing mSHP-1_EGFP or EGFP alone precipitated with antibody to GFP, blot for γ-tubulin"}, "[2]": {"target": "γ-tubulin (MCF7 cells) (human (endogenous in MCF7)) (UniProt P23258)", "experiment": "co-IP; MCF7 extracts precipitated with antibody to SHP-1 or to γ-tubulin, immunoblot"}, "[3]": {"target": "γ-tubulin (BMMCs) (mouse (endogenous in BMMCs)) (UniProt P83887)", "experiment": "co-IP; BMMC extracts (HEPES buffer with 1% NP-40, protease inhibitors) incubated with antibodies immobilised on protein A or protein G beads, immunoblot; in Figure 9B cells nonactivated or antigen-activated (3 min, 10 min)"}, "[4]": {"target": "SHP-1 (MCF7 cells) (human (endogenous in MCF7)) (UniProt P29350)", "experiment": "co-IP; MCF7 extracts precipitated with antibody to SHP-1 or to γ-tubulin, immunoblot"}}, "note": "No constants are given. Whether binding was seen depends on the method and setting. In cells and extracts the contact can be indirect. A result given as binding can be weak or reduced; the word gives no strength."}
{"substance": "γ-tubulin (HEK cells) (from UniProt P23258)", "values": [{"measurement": "binding", "setting": "[1]", "result": "binds"}]}
{"substance": "SHP-1 (MCF7 cells) (from UniProt P29350 1-595) (enzyme)", "values": [{"measurement": "binding", "setting": "[2]", "result": "binds"}]}
{"substance": "Src homology 2 (SH2) domain-containing protein tyrosine phosphatase 1 (SHP-1; Ptpn6) (from UniProt P29351 1-595) (enzyme)", "values": [{"measurement": "binding", "setting": "[3]", "result": "binds"}]}
{"substance": "SHP-2 (gene Ptpn11) (from UniProt P35235 1-593) (enzyme)", "values": [{"measurement": "binding", "setting": "[3]", "result": "no binding"}]}
{"substance": "γ-tubulin (MCF7 cells) (from UniProt P23258)", "values": [{"measurement": "binding", "setting": "[4]", "result": "binds"}]}
